Assay results from the supplement of paper PMC10849652.
This is one part of the list.

The chains behind the UniProt entries cited, without tags or fusion partners. Where a name states a change or a piece, a line headed by the entry shows the natural chain unless it says otherwise.
UniProt Q92544: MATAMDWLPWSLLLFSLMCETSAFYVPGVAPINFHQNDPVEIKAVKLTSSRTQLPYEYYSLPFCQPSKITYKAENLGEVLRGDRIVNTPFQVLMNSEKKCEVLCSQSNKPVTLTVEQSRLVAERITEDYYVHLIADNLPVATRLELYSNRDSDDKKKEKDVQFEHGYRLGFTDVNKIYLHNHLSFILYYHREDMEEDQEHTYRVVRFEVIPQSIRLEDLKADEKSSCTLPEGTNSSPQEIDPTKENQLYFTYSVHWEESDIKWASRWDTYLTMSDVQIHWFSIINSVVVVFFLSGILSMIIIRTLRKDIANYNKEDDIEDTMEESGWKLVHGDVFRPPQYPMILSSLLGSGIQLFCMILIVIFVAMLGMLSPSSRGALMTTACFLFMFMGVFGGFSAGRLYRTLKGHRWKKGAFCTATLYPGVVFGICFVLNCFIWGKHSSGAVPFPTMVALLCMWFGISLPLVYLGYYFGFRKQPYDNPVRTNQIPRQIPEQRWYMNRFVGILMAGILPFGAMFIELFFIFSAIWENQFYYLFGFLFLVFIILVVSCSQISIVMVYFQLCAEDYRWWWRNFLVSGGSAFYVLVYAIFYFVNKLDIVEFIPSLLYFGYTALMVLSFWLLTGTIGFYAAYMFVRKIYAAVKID
UniProt A0PJW6: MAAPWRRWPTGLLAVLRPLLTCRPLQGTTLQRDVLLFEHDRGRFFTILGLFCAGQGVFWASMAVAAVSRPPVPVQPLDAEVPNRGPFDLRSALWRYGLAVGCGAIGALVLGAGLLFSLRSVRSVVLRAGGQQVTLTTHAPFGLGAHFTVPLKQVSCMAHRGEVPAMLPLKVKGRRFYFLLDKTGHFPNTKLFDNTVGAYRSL
UniProt Q5U3C3: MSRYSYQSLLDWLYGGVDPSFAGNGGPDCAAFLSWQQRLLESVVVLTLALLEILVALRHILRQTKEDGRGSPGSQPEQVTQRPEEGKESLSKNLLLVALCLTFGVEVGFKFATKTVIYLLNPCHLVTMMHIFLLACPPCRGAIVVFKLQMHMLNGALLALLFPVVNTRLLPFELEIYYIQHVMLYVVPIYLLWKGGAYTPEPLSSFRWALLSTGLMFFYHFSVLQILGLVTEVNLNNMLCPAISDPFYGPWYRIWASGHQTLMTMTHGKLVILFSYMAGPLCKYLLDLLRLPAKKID
UniProt Q53S58: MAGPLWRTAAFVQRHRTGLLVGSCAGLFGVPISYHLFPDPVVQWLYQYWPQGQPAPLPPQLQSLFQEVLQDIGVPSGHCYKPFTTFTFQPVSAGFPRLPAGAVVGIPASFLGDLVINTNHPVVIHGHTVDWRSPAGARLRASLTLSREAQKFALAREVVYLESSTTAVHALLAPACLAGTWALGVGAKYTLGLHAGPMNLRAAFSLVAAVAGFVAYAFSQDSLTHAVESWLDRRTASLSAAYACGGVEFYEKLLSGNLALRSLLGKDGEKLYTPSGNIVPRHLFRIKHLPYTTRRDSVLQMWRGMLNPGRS
UniProt Q9BVX2: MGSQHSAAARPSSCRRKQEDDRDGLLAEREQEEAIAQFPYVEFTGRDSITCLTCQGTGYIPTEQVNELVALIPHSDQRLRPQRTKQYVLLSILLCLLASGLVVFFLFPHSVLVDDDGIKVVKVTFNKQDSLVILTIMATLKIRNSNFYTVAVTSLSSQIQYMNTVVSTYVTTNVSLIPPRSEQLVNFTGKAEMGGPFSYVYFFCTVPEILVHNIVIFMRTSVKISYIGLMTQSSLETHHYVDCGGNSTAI
UniProt Q6UWJ1: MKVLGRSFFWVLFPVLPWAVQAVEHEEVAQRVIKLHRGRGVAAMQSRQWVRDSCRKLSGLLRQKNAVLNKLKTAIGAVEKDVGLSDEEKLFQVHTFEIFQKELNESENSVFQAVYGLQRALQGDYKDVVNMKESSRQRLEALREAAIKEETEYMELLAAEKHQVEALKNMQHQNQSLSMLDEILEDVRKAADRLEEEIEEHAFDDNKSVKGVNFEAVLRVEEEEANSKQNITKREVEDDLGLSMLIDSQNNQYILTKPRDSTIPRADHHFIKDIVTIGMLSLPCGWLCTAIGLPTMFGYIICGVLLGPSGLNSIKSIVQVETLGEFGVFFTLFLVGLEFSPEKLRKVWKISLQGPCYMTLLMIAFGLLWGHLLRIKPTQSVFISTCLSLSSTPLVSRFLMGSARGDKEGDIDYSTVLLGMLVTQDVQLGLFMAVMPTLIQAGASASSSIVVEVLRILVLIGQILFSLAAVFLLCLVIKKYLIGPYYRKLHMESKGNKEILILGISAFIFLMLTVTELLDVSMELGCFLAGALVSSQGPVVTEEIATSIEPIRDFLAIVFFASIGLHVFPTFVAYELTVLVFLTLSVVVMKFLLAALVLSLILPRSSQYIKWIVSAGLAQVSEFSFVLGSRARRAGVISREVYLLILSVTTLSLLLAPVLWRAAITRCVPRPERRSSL
UniProt Q8N131: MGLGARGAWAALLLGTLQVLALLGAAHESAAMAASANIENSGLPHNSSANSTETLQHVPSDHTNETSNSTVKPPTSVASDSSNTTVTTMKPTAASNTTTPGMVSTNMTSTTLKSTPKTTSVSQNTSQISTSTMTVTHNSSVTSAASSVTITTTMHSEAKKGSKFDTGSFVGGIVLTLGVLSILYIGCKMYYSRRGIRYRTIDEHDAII

Assays:
Assay in all cases: log2 fold change, soluble protein after heating vs DMSO (PISA); higher = thermal stabilisation; K562 cells, 10 uM, 30 min; active = over 0.2 and 3.5 SD of the protein, either way, in both replicates (recomputed)
saracatinib = compound: CN1CCN(CCOc2cc(OC3CCOCC3)c3c(Nc4c(Cl)ccc5c4OCO5)ncnc3c2)CC1 [saracatinib]
Summary of the method: (§1)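 Values are thermal stability changes relative to control samples and are taken from duplicates. They are stated as log2 fold changes. Before quantification by TMTpro 16plex LC-MS/MS with equalised channel sums, K562 cells at 2×10^6 cells/mL were treated with 10 μM compound for 30 min, heated in aliquots for 3 min across 48°C-58°C, pooled, extracted in PBS with 0.5% NP-40 at 4°C, and centrifuged at 21,000xg for 90 min to give the soluble supernatant.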

sotrastaurin = compound: CN1CCN(c2nc(C3=C(c4c[nH]c5ccccc45)C(=O)NC3=O)c3ccccc3n2)CC1 [sotrastaurin]
Summary of the method: as §1

Tubastatin A = compound: CN1CCc2c(c3ccccc3n2Cc2ccc(C(=O)NO)cc2)C1 [Tubastatin A]
Summary of the method: as §1

[1] = compound: CNC(=O)C1=CC=CC=C1NC2=NC(=NC=C2Cl)NC3=C(C=C(C=C3)N4CCOCC4)OC
Summary of the method: as §1

defactinib = compound: CNC(=O)c1ccc(Nc2ncc(C(F)(F)F)c(NCc3nccnc3N(C)S(C)(=O)=O)n2)cc1 [defactinib]
Summary of the method: as §1

rucaparib = compound: CNCc1ccc(-c2[nH]c3cc(F)cc4c3c2CCNC4=O)cc1 [rucaparib]
Summary of the method: as §1

[2] = compound: CNc1nc(-c2ccc3c(N)n[nH]c3c2)cc(N2C[C@@H](C(=O)NC3CCCCC3)CC[C@H]2C)n1
Summary of the method: as §1

encorafenib = compound: COC(=O)N[C@@H](C)CNc1nccc(-c2cn(C(C)C)nc2-c2cc(Cl)cc(NS(C)(=O)=O)c2F)n1 [encorafenib]
Summary of the method: as §1

[3] = compound: COC(=O)[C@H](CCSC)NC(=O)C1=C(C=C(C=C1)NC[C@H](CS)N)C2=CC=CC=C2
Summary of the method: as §1

[4] = compound: COC1=CC=C(C=C1)CN2C=CC3=C2C=C(C=C3)C(=O)NO
Summary of the method: as §1

filanesib = compound: CON(C)C(=O)N1N=C(c2cc(F)ccc2F)S[C@@]1(CCCN)c1ccccc1 [filanesib]
Summary of the method: as §1

zotarolimus = compound: CO[C@H]1C[C@@H]2CC[C@@H](C)[C@@](O)(O2)C(=O)C(=O)N2CCCC[C@H]2C(=O)O[C@H]([C@H](C)C[C@@H]2CC[C@H](n3cnnn3)[C@H](OC)C2)CC(=O)[C@H](C)/C=C(\C)[C@@H](O)[C@@H](OC)C(=O)[C@H](C)C[C@H](C)/C=C/C=C/C=C/1C [zotarolimus]
Summary of the method: as §1

idasanutlin = compound: COc1cc(C(=O)O)ccc1NC(=O)[C@@H]1N[C@@H](CC(C)(C)C)[C@](C#N)(c2ccc(Cl)cc2F)[C@H]1c1cccc(Cl)c1F [idasanutlin]
Summary of the method: as §1

alisertib = compound: COc1cc(Nc2ncc3c(n2)-c2ccc(Cl)cc2C(c2c(F)cccc2OC)=NC3)ccc1C(=O)O [alisertib]
Summary of the method: as §1

[5] = compound: COc1cc2nc(-c3cc(F)ccc3O)nc(N[C@@H]3CNC[C@H]3C(C)(C)O)c2cc1OC
Summary of the method: as §1

gefitinib = compound: COc1cc2ncnc(Nc3ccc(F)c(Cl)c3)c2cc1OCCCN1CCOCC1 [gefitinib]
Summary of the method: as §1

[6] = compound: COc1cccc2cc(-c3nc([C@H]4CC[C@H](C(=O)O)CC4)n4ncnc(N)c34)[nH]c12
Summary of the method: as §1

lapatinib = compound: CS(=O)(=O)CCNCc1ccc(-c2ccc3ncnc(Nc4ccc(OCc5cccc(F)c5)c(Cl)c4)c3c2)o1 [lapatinib]
Summary of the method: as §1

pictilisib = compound: CS(=O)(=O)N1CCN(Cc2cc3nc(-c4cccc5[nH]ncc45)nc(N4CCOCC4)c3s2)CC1 [pictilisib]
Summary of the method: as §1

Measured: log2 fold change

TM9SF4 (UniProt Q92544)
inactive: saracatinib -0.028 | sotrastaurin 0.017 | Tubastatin A -0.015 | [1] 0.013 | defactinib 0.037 | rucaparib 0.043 | [2] -0.046 | encorafenib 0.039 | [3] -0.03 | [4] 0.048 | filanesib -0.04 | zotarolimus 0.036 | idasanutlin 0.004 | alisertib -0.031 | [5] -0.023 | gefitinib 0.086 | [6] 0.004 | lapatinib 0.274 | pictilisib -0.161

TMEM223 (UniProt A0PJW6)
inactive: saracatinib 0.114 | sotrastaurin 0.048 | Tubastatin A -0.059 | [1] 0.045 | defactinib 0.015 | rucaparib -0.03 | [2] -0.02 | encorafenib -0.047 | [3] 0.022 | [4] -0.042 | filanesib -0.109 | zotarolimus 0.083 | idasanutlin -0.112 | alisertib -0.046 | [5] -0.147 | gefitinib -0.028 | [6] 0.038 | lapatinib 0.018 | pictilisib -0.007

TMEM164 (UniProt Q5U3C3)
inactive: saracatinib -0.13 | sotrastaurin 0.197 | Tubastatin A 0.012 | [1] 0.033 | defactinib 0.06 | rucaparib -0.233 | [2] 0.061 | encorafenib 0.211 | [3] -0.003 | [4] 0.045 | filanesib -0.306 | zotarolimus -0.039 | idasanutlin -0.031 | alisertib 0.211 | [5] 0.098 | gefitinib -0.013 | [6] 0.198 | lapatinib -0.06 | pictilisib 0.008

TMEM177 (UniProt Q53S58)
inactive: saracatinib 0.078 | sotrastaurin 0.014 | Tubastatin A 0.08 | [1] 0.005 | defactinib -0.046 | rucaparib 0.009 | [2] -0.003 | encorafenib -0.02 | [3] 0.024 | [4] -0.037 | filanesib -0.115 | zotarolimus 0.019 | idasanutlin -0.077 | alisertib -0.199 | [5] -0.154 | gefitinib 0.077 | [6] 0.086 | lapatinib -0.016 | pictilisib 0.151

TMEM106C (UniProt Q9BVX2)
inactive: saracatinib 0.085 | sotrastaurin -0.112 | [1] -0.16 | defactinib 0.322 | [2] -0.193 | [3] 0.082 | filanesib -0.075 | [5] -0.01 | gefitinib -0.358 | lapatinib 0.121

TMCO3 (UniProt Q6UWJ1)
inactive: saracatinib -0.202 | sotrastaurin 0.15 | defactinib 0.032 | [2] -0.006 | [3] 0.134 | filanesib 0.107 | alisertib -0.158 | [6] -0.105 | pictilisib 0.163

TMEM123 (UniProt Q8N131)
inactive: saracatinib 0.03 | sotrastaurin 0.012 | Tubastatin A -0.033 | [1] -0.096 | defactinib -0.064 | rucaparib -0.061 | [2] 0.054 | encorafenib -0.022 | [3] 0.086 | filanesib 0.003 | idasanutlin -0.045 | alisertib -0.095 | [5] 0.059 | gefitinib 0.023 | [6] -0.069 | lapatinib -0.116

TMEM189-UBE2V1 (UniProt I3L0A0)
inactive: saracatinib 0.041 | sotrastaurin 0.157 | Tubastatin A -0.007 | [1] -0.004 | defactinib -0.014 | rucaparib -0.059 | [2] -0.038 | encorafenib 0 | [3] 0.018 | [4] -0.034 | filanesib -0.051 | zotarolimus -0.049 | idasanutlin -0.024 | alisertib -0.105 | [5] -0.048 | gefitinib -0.034 | [6] 0.112 | lapatinib 0.011 | pictilisib -0.026
